Results from one PubChem assay

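Mouse JNK3 activity from prestimulated HepG2 lysate, measured as phospho-c-Jun AlphaScreen signal after two hours of kinase reaction plus three hours detection. Each compound ran as a dilution series from about 0.6 nM up to 57.1 µM. Fitted AC50 for either an inhibiting or an activating curve; a lower value means greater potency. Calls come from the fitted dose curve (inhibitor, activator, inactive or inconclusive); every row here is inconclusive, including some full curves, so the exact cut-off is unclear.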

Values are in nM. All entries here are filed as inconclusive. These entries are mostly ones the record files as inconclusive; other results of the assay are not listed here. A potency from a partial, single-point or poor curve is only a rough figure. Some entries filed as inconclusive have a full curve. The first word of each remark tells which way the curve ran; it can be opposite to the aim of the assay.

* CNCCc1cnc[nH]1 | Potency 100 nM (activator, full curve, poor fit)
* NCCC[C@@H](CC(=O)N[C@@H]1CCCC[C@H]1C(=O)N[C@H](CC(=O)N[C@@H](CCC(=O)O)CC(=O)O)Cc1ccccc1)NC(=O)C[C@H](Cc1c[nH]c2ccccc12)NC(=O)[C@@H]1CNCC[C@H]1N | Potency 12589 nM (inhibitor, single point)
* CCCN(CCC)c1c([N+](=O)[O-])cc(C(F)(F)F)cc1[N+](=O)[O-] | Potency 15848 nM (inhibitor, partial curve)
* C[C@@H]1C(=O)NC2=Nc3cccc(Cl)c3CN21 | Potency 6.31 nM (activator, full curve, poor fit)
* O=C(O)CC12C[C@H]3C[C@@H](CC(O)(C3)C1)C2 | Potency 501.2 nM (activator, partial curve)
* CC(C)[C@]1(NC(=O)[C@H]2C=C3c4cccc5[nH]cc(c45)C[C@H]3N(C)C2)O[C@@]2(O)[C@H]3CCCN3C(=O)[C@H](Cc3ccccc3)N2C1=O | Potency 15848 nM (inhibitor, single point)
* COC(=O)N1C2(C=CC1(C)C(=O)NCc1ccc(N(C)C)cc1)CCCCC2 (stereo not shown) | Potency 12589 nM (inhibitor, partial curve)
* COc1ccc(C[C@H]2NC[C@H](O)[C@@H]2OC(C)=O)cc1 | Potency 5.012 nM (activator, full curve, poor fit)
* CC(=O)[C@@H]1CC[C@@H]2[C@@H]3CCC4=CC(=O)CC[C@@]4(C)[C@H]3CC[C@]21C | Potency 31622 nM (activator, partial curve, poor fit)
* C[C@@H]1Cc2cc3c(cc2C(c2ccc(N)cc2)=NN1)OCO3 | Potency 3.162 nM (activator, full curve, poor fit)
* COc1ccc2[nH]cc(CCNc3ccnc(-c4ccccc4Cl)n3)c2c1 | Potency 25118 nM (inhibitor, single point)
* COC(=O)[C@@]1(Cc2ccc(F)cc2)[C@H]2c3cc(C(=O)N(C)C)n(CC4CC4)c3C[C@H]2CN1C(=O)c1ccccc1 | Potency 19952 nM (inhibitor, partial curve)
* COc1cc([C@H]2Oc3cc([C@H]4Oc5cc(O)cc(O)c5C(=O)[C@@H]4O)ccc3O[C@@H]2CO)ccc1O | Potency 25118 nM (activator, partial curve)
* CNC1=C(Cl)C(=O)c2ccncc2C1=O | Potency 15848 nM (inhibitor, partial curve)
* CC(C)N=c1cc2n(-c3ccc(Cl)cc3)c3ccccc3nc-2cc1Nc1ccc(Cl)cc1 | Potency 631 nM (inhibitor, full curve)
* BrC(Br)Br | Potency 50.12 nM (activator, full curve, poor fit)
* COc1ccc(-c2oc3cc(OC)c(OC(C)=O)c(OC)c3c(=O)c2OC)cc1OC(C)=O | Potency 25.12 nM (activator, full curve, poor fit)
* O=C(Nc1ccccc1)N[C@H]1C[C@H](C(=O)O)Nc2cc(Cl)cc(Cl)c21 | Potency 12589 nM (inhibitor, single point)
* CC(C)C[C@@H](CC(=O)N[C@@H](CCC(=O)O)CC(=O)O)NC(=O)[C@@H]1CNCC[C@H]1NC(=O)C[C@@H](NC(=O)C[C@H](Cc1c[nH]c2ccccc12)NC(=O)[C@@H]1CNCC[C@H]1N)C(C)C | Potency 6310 nM (inhibitor, partial curve, poor fit)
* Cc1ccc2oc(-c3ccccc3)c(O)c(=O)c2c1 | Potency 1259 nM (activator, partial curve, poor fit)
* CC(C)[C@H]1C(=O)N2CCC[C@@H]2[C@]2(O)O[C@@](NC(=O)[C@H]3C=C4c5cccc6[nH]cc(c56)C[C@H]4N(C)C3)(C(C)C)C(=O)N12 | Potency 25118 nM (inhibitor, partial curve)
* N=c1nc(N2CCCCC2)cc(N)n1O | Potency 19.95 nM (activator, full curve, poor fit)
* ClC(Cl)Br | Potency 15848 nM (activator, full curve, poor fit)
* CCCC/C=C/C(NC(=O)c1ccc(C(F)(F)F)cc1)c1ccccc1 (stereo not shown) | Potency 15848 nM (activator, partial curve)
* CN(C)c1ccc(N)cc1 | Potency 25118 nM (inhibitor, partial curve)
* CC(C)=CCC/C(C)=C/COc1c2ccoc2cc2oc(=O)ccc12 | Potency 39810 nM (activator, partial curve)
* O=C1NC(=O)C(c2ccccc2[N+](=O)[O-])=C1Nc1ccc(O)c(Cl)c1 | Potency 50118 nM (activator, partial curve, poor fit)
* Cc1ccc(C[N+](C)(C)C)o1 | Potency 158.5 nM (activator, full curve)
* Cc1ccc(C(N)=Nc2ccccc2)cc1 | Potency 1000 nM (activator, full curve, poor fit)

The last 2 entries again:

| structure | Potency (nM) | curve |
|---|---|---|
| `Cc1ccc(C[N+](C)(C)C)o1` | 158.5 | activator, full curve |
| `Cc1ccc(C(N)=Nc2ccccc2)cc1` | 1000 | activator, full curve, poor fit |

Data taken from PubChem BioAssay AID530, deposited by NCATS (2006).